Assay results taken from US20250340636A1, “ANTIBODIES TARGETING L1CAM AND USES THEREOF” (MEMORIAL SLOAN-KETTERING CANCER CENTER, priority 2023, published 2025).

Chains of the proteins cited; added tags and fusions are not shown. Lines headed by an entry give the natural chain unless they say otherwise; changes in a name come on top.
UniProt O94856: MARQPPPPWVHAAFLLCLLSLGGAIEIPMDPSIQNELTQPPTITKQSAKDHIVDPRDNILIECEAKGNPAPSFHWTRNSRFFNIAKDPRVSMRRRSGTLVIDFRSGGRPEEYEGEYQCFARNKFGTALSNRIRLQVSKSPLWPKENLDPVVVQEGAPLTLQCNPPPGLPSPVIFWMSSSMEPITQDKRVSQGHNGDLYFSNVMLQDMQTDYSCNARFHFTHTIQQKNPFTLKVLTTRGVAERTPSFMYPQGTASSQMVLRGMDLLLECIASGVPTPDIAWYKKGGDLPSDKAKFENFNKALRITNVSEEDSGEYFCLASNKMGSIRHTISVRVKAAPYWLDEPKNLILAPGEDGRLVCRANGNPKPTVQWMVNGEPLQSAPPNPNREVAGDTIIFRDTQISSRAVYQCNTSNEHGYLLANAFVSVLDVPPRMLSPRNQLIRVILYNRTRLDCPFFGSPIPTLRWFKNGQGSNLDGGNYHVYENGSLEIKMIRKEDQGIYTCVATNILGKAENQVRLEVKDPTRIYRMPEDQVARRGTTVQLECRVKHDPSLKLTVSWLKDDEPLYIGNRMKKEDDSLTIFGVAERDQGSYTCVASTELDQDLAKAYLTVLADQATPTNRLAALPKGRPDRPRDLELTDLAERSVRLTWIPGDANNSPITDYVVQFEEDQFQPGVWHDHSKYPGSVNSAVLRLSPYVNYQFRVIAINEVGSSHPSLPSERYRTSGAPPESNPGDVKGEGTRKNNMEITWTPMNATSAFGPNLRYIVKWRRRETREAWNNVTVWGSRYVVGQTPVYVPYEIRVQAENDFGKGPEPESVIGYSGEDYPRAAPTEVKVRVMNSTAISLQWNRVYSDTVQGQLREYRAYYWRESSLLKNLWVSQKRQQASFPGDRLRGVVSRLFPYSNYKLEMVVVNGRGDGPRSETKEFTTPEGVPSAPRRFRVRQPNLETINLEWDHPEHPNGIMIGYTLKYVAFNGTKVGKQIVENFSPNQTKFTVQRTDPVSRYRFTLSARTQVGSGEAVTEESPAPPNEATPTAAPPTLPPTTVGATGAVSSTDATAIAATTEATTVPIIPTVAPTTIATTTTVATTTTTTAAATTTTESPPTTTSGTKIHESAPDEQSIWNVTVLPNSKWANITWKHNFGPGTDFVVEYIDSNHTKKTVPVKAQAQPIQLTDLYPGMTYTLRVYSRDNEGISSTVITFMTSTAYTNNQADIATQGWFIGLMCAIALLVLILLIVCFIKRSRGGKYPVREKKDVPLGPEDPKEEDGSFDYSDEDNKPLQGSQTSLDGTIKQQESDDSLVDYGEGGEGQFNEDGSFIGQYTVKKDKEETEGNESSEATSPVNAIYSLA

Target: human Neurofascin (residues 25-1039 with a C-terminal 10xHis tag) (human) (UniProt O94856)
Assay: ELISA, plates coated with human Neurofascin

Row | binding | Binder
1 | no binding (tested: 1 µM) | TDI-Y-005 (antibody, human IgG1, kappa, V domains shown) VH: EVQMVESGGGLVQPGGSLRLSCAAPGFIFSSYNMNWVRQAPGKGLEWVSYISSSSSTTYYADSVKGRFTISRDNAKNSLYLQMNSLRDEDTAVYYCASLYSGYDYYYYYGMDVWGQGTTVTVSS VL: DIVMTQTPLSSPVSLGQPASISCRSSQSLVHSDGNTYLSWLQQRPGQPPRVLIYKISKRFSGVPDRFSGSGAGTDFTLKISRVEAEDVGVYYCMQATQFPFTFGPGTKVDIKR
2 | no binding (tested: 1 µM) | TDI-Y-004 (antibody, human IgG1, kappa, V domains shown) VH: QVQLVQSGAEVKKPGSSVKVSCKASGYTFTNYYIHWVRQAPGQGLEWMGKIGPGSGSPYYQGMFKDRVTITADESTSTAYMELSSLRSEDTAVYYCARWLLPFDYWGQGTLVTVSS VL: EIVLTQSPGTLSLSPGERATLSCRASSSVNYMHWYQQKPGQAPRLLIYATSILASGIPDRFSGSGSGTDYTLTISRLEPEDFAVYYCQQFSSDPLTFGGGTKVEIKR

No constants are given. Whether binding was seen depends on the method and setting.
